Tests used:
[1] = general procedure: Fmoc solid-phase peptide synthesis; Fmoc-Sieber-resin; PyBOP/DIPEA; conditions: whole synthesis; for isolated yield: scale of the general procedure 0.69 mmol
[2] = general procedure: Fmoc solid-phase peptide synthesis; Sieber resin; PyBOP/DIPEA; conditions: whole synthesis

Row | Substance | isolated mass [1] | isolated yield [1] | isolated mass [2]
1 | Cys-Asp-βDap-PEG4-Asp-Tyr-Met-Gly-Trp-Met-Asp-Phe-NH2 | 20 mg | 3% | 
2 | Dap(Ac)-Asp-Cys-PEG2-Asp-Tyr-Met-Gly-Trp-Met-Asp-Phe-NH2 |  | 7% | 30 mg
3 | Dap(Ac)-Asp-Cys-PEG3-Asp-Tyr-Met-Gly-Trp-Met-Asp-Phe-NH2 | 53 mg | 9.5% | 
4 | Dap(Ac)-Asp-Cys-PEG12-Asp-Tyr-Met-Gly-Trp-Met-Asp-Phe-NH2 | 50 mg | 9% | 
